Measurements: patent publication US7144908B2, “Agonists of beta-adrenoceptors” (Glaxo Group Limited, priority 2002, dated 2006)
Some of these results come from one statement about several compounds together. At least one structure is not confirmed: it was looked up by name or label, or the drawing left a doubt.

Molecular target: PDE4
Experiment: PDE4 IC50 ratio: [3H]R-rolipram high affinity binding over low affinity PDE4 catalytic activity
Type: biochemical
Conditions: 1 nM [3H]R-rolipram binding; 1 μM [3H]-cAMP substrate

Structure (SMILES) | IC50 ratio (IC50 for PDE4 form binding rolipram with high affinity divided by IC50 for form binding rolipram with low affinity)
N#CC1(c2ccc(OC(F)F)c(OCC3CC3)c2)CCC(O)CC1 (stereo not drawn) [cis-[4-cyano-4-(3-cyclopropylmethoxy-4-difluoromethoxyphenyl)cyclohexan-1-ol]] | ≥ 0.1
COC(=O)C1CC(C#N)(c2ccc(OC(F)F)c(OCC3CC3)c2)CCC1=O (centres unmarked) [2-carbomethoxy-4-cyano-4-(3-cyclopropylmethoxy-4-difluoromethoxyphenyl)cyclohexan-1-one] | ≥ 0.1
